Laboratory results from PMC8496311.
No constants are given. Whether binding was seen depends on the method and setting. Binding seen in cells or lysates may run through a third protein.

Biological target: T1, Innexin 2 (Drosophila (endogenous in ovary)) (UniProt Q9V427)
T1 sequence: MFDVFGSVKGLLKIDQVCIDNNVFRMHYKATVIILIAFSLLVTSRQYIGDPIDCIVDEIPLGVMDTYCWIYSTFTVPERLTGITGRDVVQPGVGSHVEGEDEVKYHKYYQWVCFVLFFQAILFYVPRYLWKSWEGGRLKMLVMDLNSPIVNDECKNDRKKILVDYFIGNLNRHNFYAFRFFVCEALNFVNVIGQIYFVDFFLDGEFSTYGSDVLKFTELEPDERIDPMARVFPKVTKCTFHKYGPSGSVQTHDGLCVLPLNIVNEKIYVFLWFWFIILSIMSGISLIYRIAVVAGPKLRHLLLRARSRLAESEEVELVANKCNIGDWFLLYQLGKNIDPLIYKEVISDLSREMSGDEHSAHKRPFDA
Test: proximity ligation; fixed (4% PFA) whole-mount Drosophila ovaries; primary antibodies against the two endogenous proteins, goat anti-guinea pig IgG conjugated with Plus oligonucleotide (Duolink); punctate signals counted in single confocal slices

binding: no binding
B1: βPS-Integrin (receptor, UniProt P11584 29-846)
chain: QKAAKLTAVSTCASKEKCHTCIQTEGCAWCMQPDFKGQSRCYQNTSSLCPEEFAYSPITVEQILVNNKLTNQYKAELAAGGGGSAMSGSSSSSYSSSSSSSSFYSQSSSGSSSASGYEEYSAGEIVQIQPQSMRLALRVNEKHNIKISYSQAEGYPVDLYYLMDLSKSMEDDKAKLSTLGDKLSETMKRITNNFHLGFGSFVDKVLMPYVSTIPKKLEHPCENCKAPYGYQNHMPLNNNTESFSNEVKNATVSGNLDAPEGGFDAIMQAIACRSQIGWREQARRLLVFSTDAGFHYAGDGKLGGVIAPNDGECHLSPKGEYTHSTLQDYPSISQINQKVKDNAINIIFAVTASQLSVYEKLVEHIQGSSAAKLDNDSSNVVELVKEEYRKISSSVEMKDNATGDVKITYFSSCLSNGPEVQTSKCDNLKEGQQVSFTAQIQLLKCPEDPRDWTQTIHISPVGINEVMQIQLTMLCSCPCENPGSIGYQVQANSCSGHGTSMCGICNCDDSYFGNKCECSATDLTSKFANDTSCRADSTSTTDCSGRGHCVCGACECHKRPNPIEIISGKHCECDNFSCERNRNQLCSGPDHGTCECGRCKCKPGWTGSNCGCQESNDTCMPPGGGEICSGHGTCECGVCKCTVNDQGRFSGRHCEKCPTCSGRCQELKDCVQCQMYKTGELKNGDDCARNCTQFVPVGVEKVEIDETKDEQMCKFFDEDDCKFMFKYSEQGELHVYAQENKECPAKVFMLGIVMGVIAAIVLVGLAILLLWKLLTTIHDRREFARFEKERMNAKWDTGENPIYKQATSTFKNPMYAGK
